Data as given in PubChem BioAssay AID1259405 (NCATS, 2018).
Screen: 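Silenced genes that increase secreted GFP made by CHO cells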 (primary screen). Cells: Chinese hamster CHO-K1 ovary cells with stable secreted eGFP expression. Reagent: single siRNA against mouse genes, 0.8 pmol siRNA per well (2 µl of 400 nM stock). Timing: 3 days. Measured: 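Per-well intracellular GFP measured by laser scanning cytometry, plus viability from ATP luminescence, each relative to plate median of non-targeting control wells, in %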. Direction: GFP, % of control: higher = more GFP per well, higher productivity; viability (ATP), % of control: higher = more viable cells (more ATP). Call rule: 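Called active when intracellular GFP, relative to negative control, is at or above 120%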.
Here is one part, drawn at random, of about 50,000 reagents tested. About 4,000 of all reagents (8%) were called active. 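Mouse siRNA library applied to hamster cells; one well for each siRNA.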 The numbers tell different reagents against one gene apart.

Silencing of Gkn1 (gastrokine 1) #1 resulted in: GFP, % of control 79.3; viability (ATP), % of control 78.9; inactive. Against Gkn1 (gastrokine 1) #2 the deposit lists GFP, % of control 57; viability (ATP), % of control 78.5; inactive. For Gkn1 (gastrokine 1) #3 the deposit lists GFP, % of control 91.4; viability (ATP), % of control 71.6; inactive. Depletion of Zfp189 (zinc finger protein 189) #1 resulted in: GFP, % of control 65.1; viability (ATP), % of control 90.8; inactive. For Zfp189 (zinc finger protein 189) #2 the deposit lists GFP, % of control 43.1; viability (ATP), % of control 58.8; inactive. With knock-down of Zfp189 (zinc finger protein 189) #3 the results were GFP, % of control 80.4; viability (ATP), % of control 101; inactive.

Individual results from above.
Under “Call”, Gkn1 (gastrokine 1) #3 is entered as inactive
Zfp189 (zinc finger protein 189) #3, GFP, % of control = 80.4

Further reagents follow.
Defb6 (defensin beta 6) #1 gave GFP, % of control 87.6; viability (ATP), % of control 79.3; inactive. Defb6 (defensin beta 6) #2 scored GFP, % of control 52.8; viability (ATP), % of control 43.6; inactive. After knock-down of Defb6 (defensin beta 6) #3, the screen gave GFP, % of control 48.4; viability (ATP), % of control 34.5; inactive. Silencing of Ca12 (carbonic anhydrase 12) #1 gave: GFP, % of control 137; viability (ATP), % of control 129; active. Ca12 (carbonic anhydrase 12) #2 gave GFP, % of control 72.7; viability (ATP), % of control 74.2; inactive. Silencing of Rbmxl1 (RNA binding motif protein, X-linked like-1) #1 gave: GFP, % of control 57.1; viability (ATP), % of control 43.9; inactive.

Rbmxl1 (RNA binding motif protein, X-linked like-1) #2 scored GFP, % of control 93.7; viability (ATP), % of control 76.7; inactive. Against Rbmxl1 (RNA binding motif protein, X-linked like-1) #3, the values are GFP, % of control 146; viability (ATP), % of control 102; active. Against Abcc10 (ATP-binding cassette, sub-family C member 10) #1 the deposit lists GFP, % of control 113; viability (ATP), % of control 113; inactive. After knock-down of Abcc10 (ATP-binding cassette, sub-family C member 10) #2, the screen gave GFP, % of control 63; viability (ATP), % of control 57.1; inactive. Silencing of Abcc10 (ATP-binding cassette, sub-family C member 10) #3 came out at: GFP, % of control 64.2; viability (ATP), % of control 82.2; inactive.
